# According to patent US7759392B2, “Pharmaceutical compounds” (Nicox S.A., priority 1999, dated 2010):
# Some of these results come from one statement about several compounds together.
# Test system: erythrocytes
# Test: Test 4A: inhibition of erythrocyte haemolysis induced by cumene hydroperoxide
# Conditions: 2 mM, preincubated 30 minutes; cumene hydroperoxide 270 μM; at Tmax; listed as diethylenglycol
smiles,measurement,value
OCCOCCO [Diethylenglycol],% Haemolysis inhibition,higher than 15%
